Measured values as given in the supplement of paper PMC12823440, “Inhibitors supercharge kinase turnover through native proteolytic circuits” (Nature, 2025).
Counter-ions that a name gives are not always drawn. This is one part of the list. Hit calls seldom repeat between salt and free forms of one compound.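 In K562 cells expressing nanoluciferase-fused kinases, luminescence was recorded at 4 h intervals between 2 and 18 h, normalized as percent of control with DMSO at 100% and a positive control at 0%. A significant (2 sigma) signal drop marks a time point as decreased. The authors' rule for a hit is not shown and takes in more than the number of time points.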

Chains of the proteins cited; added tags and fusions are not shown.
UniProt Q00534, whole entry: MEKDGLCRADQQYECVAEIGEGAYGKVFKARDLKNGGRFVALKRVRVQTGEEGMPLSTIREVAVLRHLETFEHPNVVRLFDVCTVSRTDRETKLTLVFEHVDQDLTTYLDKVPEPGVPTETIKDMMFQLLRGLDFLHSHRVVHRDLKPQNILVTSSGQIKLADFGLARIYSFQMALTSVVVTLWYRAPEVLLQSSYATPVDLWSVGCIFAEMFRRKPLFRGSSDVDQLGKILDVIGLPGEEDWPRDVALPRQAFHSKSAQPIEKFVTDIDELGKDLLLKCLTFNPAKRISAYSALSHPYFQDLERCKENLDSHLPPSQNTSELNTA

Target: CDK6 (UniProt Q00534)
Experiment: number of time points (of 5) at which kinase-Nluc abundance scored as decreased, DMSO-normalised (count); higher = more persistent destabilization
Settings: K562; 2-18 h

| Structure (SMILES) | number of time points |
| --- | --- |
| Cn1c(N2CCO[C@@H](c3ccc(F)cc3)C2)nc(-c2ccncn2)cc1=O (10 µM) | 0 |
| C[C@@H](NC(=O)c1ncnc(N)c1Cl)c1ncc(C(=O)Nc2cc(C(F)(F)F)c(Cl)cn2)s1 (2.5 µM) | 0 |
| CO/N=C1/C(c2c(O)[nH]c3cc(Cl)c(Cl)cc23)=Nc2ccccc21 (10 µM) | 0 |
| Cc1n[nH]c2ncc(C(=O)N3CCC[C@H]3c3ccc(Cl)cc3)cc12 (10 µM) | 0 |
| Cc1ccc(Nc2cc(N[C@@H]3CCCC[C@@H]3N)nnc2C(N)=O)nc1C (2 µM) | 0 |
| NC(=O)c1cnc(N[C@@H]2CCCC[C@@H]2N)nc1Nc1cccc(-n2nccn2)c1 (2.5 µM) | 0 |
| CCc1c(C(=O)NNC(=O)[C@H](O)c2cc(F)cc(F)c2)ccc(O)c1C (10 µM) | 0 |
| CC/C(=C(\c1ccccc1)c1ccc(OCCNC)cc1)c1ccccc1 [N-Desmethyltamoxifen (hydrochloride)] (2.5 µM) | 0 |
| CCCCNc1ncc(C(=O)NCc2ccc(-n3ccnc3)cc2)c(NC2CCC(O)CC2)n1 (centres undefined) (10 µM) | 0 |
| Oc1ccc(-c2cnc3ccc(NCc4ccco4)nn23)cc1 [IRAK inhibitor 2] (2.5 µM) | 0 |
| CS(=O)(=O)c1ccc([C@@H](CC2CCCC2)C(=O)Nc2nccs2)cc1 (10 µM) | 0 |
| CC(=O)O/N=C1/C(c2c(O)[nH]c3cc(Br)ccc23)=Nc2ccccc21 [BIO-acetoxime] (10 µM) | 0 |
| COc1cc2nc(-c3cc(F)ccc3O)nc(N[C@@H]3CNC[C@H]3C(C)(C)O)c2cc1OC (2.5 µM) | 0 |
| CS(=O)(=O)c1cccc(CNc2nc(Nc3ccc4c(c3)CCC(=O)N4)ncc2C(F)(F)F)c1 (10 µM) | 0 |
| Nc1nc(Nc2ccc3c(c2)CC[C@@H](N2CCCC2)CC3)nn1-c1cc2c(nn1)-c1ccccc1CCC2 [Bemcentinib] (2.5 µM) | 0 |
| Nc1[nH]nc2nnc(-c3c(-c4ccccc4)nn4ccccc34)cc12 (10 µM) | 0 |
| CN1CCN(Cc2ccc(-c3cnc4[nH]cc(-c5ccc6[nH]ccc6c5)c4c3)cc2)CC1 (2.5 µM) | 0 |
| CC(C)n1cnc2c(Nc3cccc(Cl)c3)nc(N[C@H]3CCCC[C@@H]3N)nc21 (2.5 µM) | 0 |
| CCC(F)(F)c1cc(N2CCC(S(C)(=O)=O)CC2)nc2sc(C(N)=O)c(N)c12 (10 µM) | 0 |
| CC(C)c1cc2c(c(O)c1O)[C@@]13CCCC(C)(C)[C@@H]1C[C@@H]2OC3=O [Carnosol] (2.5 µM) | 0 |

| Structure (SMILES) | number of time points |
| --- | --- |
| COc1ccc2nc3ccc(OC)cc3c(SCCCN)c2c1 (10 µM) | 0 |
| COc1cc2nnc(C(N)=O)c(Nc3ccc(C)cc3F)c2cc1N1CCN(CCO)CC1 (2.5 µM) | 0 |
| Nc1ccc(C(=O)Nc2cccc(-c3nc(N4CCOCC4)c4oc5ncccc5c4n3)c2)cn1 (10 µM) | 0 |
| Cc1nn(CC(F)(F)F)cc1Nc1ncc(Br)c(NCc2ccc(S(N)(=O)=O)cc2)n1 (10 µM) | 0 |
| O=C1NC(=O)C(Cc2c[nH]c3c(Cl)cccc23)N1 (centres undefined) [Necroptosis-IN-1] (10 µM) | 0 |
| CCCCNc1ncc2c(-c3ccc(F)cc3)nn(CC3CCC(N)CC3)c2n1 (centres undefined) (2.5 µM) | 0 |
| Cn1cc(-c2nc(N[C@@H]3CCCC[C@@H]3N)c(F)c3c2C(=O)NC3)cn1 [TAK-659 (hydrochloride)] (2 µM) | 0 |
| O=C1OC(COc2ccccc2[N+](=O)[O-])CC1Cc1ccccc1 (centres undefined) (10 µM) | 0 |
| Cc1cnc(Nc2ccc(F)cc2Cl)nc1-c1c[nH]c(C(=O)N[C@H](CO)c2cccc(Cl)c2)c1 (10 µM) | 0 |
| N#Cc1cnc(Nc2cc(NC[C@H]3CNCCO3)c(C(F)(F)F)cn2)cn1 (10 µM) | 0 |
| CNc1cc2c(Nc3cccc(Br)c3)ncnc2cn1 (10 µM) | 0 |
| Cc1ncsc1-c1ccc(CNC(=O)[C@@H]2C[C@@H](O)CN2C(=O)[C@@H](NC(=O)COCCOc2ccc(-c3cc(Nc4ccc(OC(F)(F)F)cc4)ncn3)cc2)C(C)(C)C)cc1 (2.5 µM) | 0 |
| O=CN1CCN(c2ccc(C=C3C(=O)Nc4ccccc43)cc2)CC1 (10 µM) | 0 |
| CN1C(=O)[C@@H](NC(=O)c2cc(Cc3ccccc3)on2)COc2ccccc21 (10 µM) | 0 |
| O=C(CCl)c1c[nH]c2ccccc12 (2.5 µM) | 0 |
| NC(=O)c1c(NC(=O)C2CC2)sc2c1CCCC2 (10 µM) | 0 |
| CN(C)c1ccc(/C=C2\C(=O)Nc3ccccc32)c2ccccc12 (10 µM) | 0 |
| O=C(O)c1c[nH]c2cc(Cl)c(-c3ccc(C4(O)CCC4)cc3)cc12 (10 µM) | 0 |
| CC1=C(C#N)C(c2ccc3[nH]nc(C)c3c2)C(C#N)=C(C)N1 (10 µM) | 0 |

Quoted from the listing.
Value of CCC(F)(F)c1cc(N2CCC(S(C)(=O)=O)CC2)nc2sc(C(N)=O)c(N)c12 (10 µM) under number of time points: 0
Value of Oc1ccc(-c2cnc3ccc(NCc4ccco4)nn23)cc1 [IRAK inhibitor 2] (2.5 µM) under number of time points: 0
